Data from paper PMC10425460.
Results are given in words; binding and its absence hold for the method and conditions named. Binding calls can cover weak binding; strength is not graded here. For part of these data: Binding seen in cells or lysates may run through a third protein. For part of these data: Where a sequence is shown, tags or fusion partners need not be part of it.

B1: nYFP-Exo84c (protein, UniProt Q9SY60 1-769)
chain: MESSEEDDEYPFIESITPQSKIDSVHQSLTEKGIRKLCCELMDLKDAVENMCGDMRTKYLAFLRISEEAVEMEHELVELRKHISSQGILVQDLMAGVCREMDDWNRLPGDVHDAEVEEDPLPNEVTDPKSEFLEKIDLLLAEHKVDEALEAMDAEERSSPDLKGSVEMSSYKSAFMERKAVLEDQLLRIAKQPSICVAELKHALIGLIRLGKGPSAHQLLLKFYATSLRRRIEAFLPSCLTCPNTFPATLSKLVFSNISVATKESAAMFGDDDNPAYSNKVVQWAEREVEYLVRLVKENASPSETASALRAASICLQDCLNYCKVLEPQGLFLSKLFLVLFRPYVEEVLELNFRRARRVIFDLNETDEGLESPSDFVTILSEFAIASDTMMTDCSIRFMQIVQDILEQLTHLVVLHFGESVLTRILQLYDKYIDFLIKALPGHSDEDGLPELQDNTVLARAETDSEQLALLGAAFTILDELLPRSLVKVWKLQIENGGGEGENSAALNSSAAPELKEWKRHMVQAFDKLRNYFCLQFVLSFIYSREGLTRLDALIYLTETPDDLHLPSLPFQALFSKLQQLAIIAGDVLLGKEKLQKILLARLTETVIIWLSNEQEFWSAFEDESNPLQPSGLQQLILDMNFTVEIARFAGYPFKVVQNHASVVINRAINIFSERGINPQSSLPKTEWFTEAAKSAINRLLMGSEDASEPEEYECEEEEEDDHHIVLPEMDDDSDSEDTSSLSTVDSFESFASASMADLESPSFTDSES
B2: Exo84c in pGADT7-GW (yeast two-hybrid prey) (protein, UniProt Q9SY60 1-769)
chain: B1 chain
B3: nYFP-fused Exo84a (BiFC construct) (protein, UniProt F4I4B6 1-754)
chain: MEARERGSMSSSIGNSAELEGNLTLSDRLKVFKGSTFDPDAYVTSKCQRMNEKETRHLSSYLVELKKASAEEMRKSVYANYAAFIRTSKEISALEGQLLSMRNLLSAQAALVHGLADGVHISSLCADDADDLRDEDLYDMDNKQLSNIENWVVEFFDRLEVLLAEKRVEESMAALEEGRRVAVEAHEKRTLSPTTLLSLNNAIKEKRQELADQLAEAISQPSTRGGELRSAVLSLKKLGDGSRAHTLLLRSYERRLQANIQSLRASNTSYGVAFAAALSQLVFSTIAQAASDSQAVVGEDPAYTSELVTWAVKQAESFALLLKRHTLASSAAAGSLRVTAECVQLCASHCSSLESRGLALSPVLLKHFRPGVEQALTGNLKRIEQSSAALAASDDWSLSYTPTGSRASSTTPTAPHLKLSISAQRFNSMVQEFLEDAGPLDEALQLDGIALDGVLQVFNSYVDLLINALPGSAENEENPVHRIVKVAETESQQTALLVNALLLADELIPRSASRILPQGTSQSTPRRGSSDRQNRPEQREWKKKLQRSVDRLRDSFCRQHALELIFTEEGEVRLSSEIYILMDETTEEPEWFPSPIFQELFAKLTRIAMIVSDMFVGRERFATILLMRLTETVILWISDDQSFWEEMETGDKPLGPLGLQQFYLDMEFVMIFASQGRYLSRNLHQVIKNIIARAVEAVSATGLDPYSTLPEEEWFAEVAQIAIKMLMGKGNFGGHGERDVTSPSVSSAKSYTSN
B4: nYFP-fused Exo84b (BiFC construct) (protein, UniProt Q9LTB0 1-752)
chain: MAAKTARSKATPTKENGVRVEEGLSLFKSDKFDADAYVQSKCSINEKDIKQLCSYLLDLKRASAEEMRRSVYANYPAFIRTSKEISDLEGELSSIRNLLSTQATLIHGLADGVNIDDDKVSDESLANGLLNFEDNGLSDLEKWATEFPDHLDALLAERRVDEALAAFDEGEILVSQANEKHTLSSSVLSSLQFAIAERKQKLADQLAKAACQPSTRGGELRSAIAALKRLGDGPRAHTVLLDAHFQRYQYNMQSLRPSSTSYGGAYTAALSQLVFSAISQASSDSLGIFGKEPAYSSELVTWATKQTEAFSLLVKRHALASSAAAGGLRAAAECAQIALGHCSLLEARGLSLCPVLLKHFKPIVEQALEANLKRIEENTAAMAAADDWVLTSPPAGSRHASTAFQNKLTSSAHRFNLMVQDFFEDVGPLLSMQLGSKALEGLFRVFNSYVDVLVRALPGSIEEEDPNFESSCNKIVQMAETEANQLALLANASLLADELLPRAAMKLSLDQTGQRTDDLRRPLDRQNRNPEQREWKRRLLSTVDKLKDAFCRQHALDLIFTEEGDSHLSADMYVNIDENGEDVDFFPSLIFQELFAKLNRMASLAADMFVGRERFAISLLMRLTETVILWLSGDQSFWDDIEEGPRPLGPLGLRQLYLDMKFVICFASQGRYLSRNLHRGTNEIISKALAAFTATGIDPYSELPEDDWFNDICVDAMERLSGKTKGNNGDVHSPTASVSAQSVSSARSHGSY
B5: Exo84a in pGADT7-GW (yeast two-hybrid prey) (protein, UniProt F4I4B6 1-754)
chain: B3 chain
B6: Exo84b in pGADT7-GW (yeast two-hybrid prey) (protein, UniProt Q9LTB0 1-752)
chain: B4 chain

How the values were obtained:
[1] = target: cYFP-VAP27-3 (Arabidopsis thaliana); assay: split reporter; BiFC: nYFP fusions of Exo84 isoforms (pCL112-nYFP) and cYFP fusions of VAP27-1/-3 (pCL113-cYFP) transiently co-expressed in N. benthamiana leaf cells; YFP fluorescence by confocal microscopy
[2] = target: VAP27-1 without the transmembrane domain in pGBKT7 (yeast two-hybrid bait) (Arabidopsis thaliana); assay: two-hybrid; one-on-one Y2H in yeast AH109; Exo84 isoforms in pGADT7-GW (prey), VAP27-1/-3 without transmembrane domain in pGBKT7 (bait); growth on SD/-Leu-His-Trp with 5 mM 3-AT
[3] = target: VAP27-3 without the transmembrane domain in pGBKT7 (yeast two-hybrid bait) (Arabidopsis thaliana); assay: as above

Binder	binding [1]	binding [2]	binding [3]
B1	binds	–	–
B2	–	binds	binds
B3	no binding	–	–
B4	no binding	–	–
B5	–	no binding	no binding
B6	–	no binding	no binding
